The values that follow come from patent publication US20170316147A1, “METHODS AND SYSTEMS FOR IDENTIFYING LIGAND-PROTEIN BINDING SITES” (King Abdullah University of Science and Technology, priority 2014, published 2017).

Chains of the proteins cited; added tags and fusions are not shown. Lines headed by an entry give the natural chain unless they say otherwise; changes in a name come on top. Residues count along the entry.
UniProt P37231, residues 224-505: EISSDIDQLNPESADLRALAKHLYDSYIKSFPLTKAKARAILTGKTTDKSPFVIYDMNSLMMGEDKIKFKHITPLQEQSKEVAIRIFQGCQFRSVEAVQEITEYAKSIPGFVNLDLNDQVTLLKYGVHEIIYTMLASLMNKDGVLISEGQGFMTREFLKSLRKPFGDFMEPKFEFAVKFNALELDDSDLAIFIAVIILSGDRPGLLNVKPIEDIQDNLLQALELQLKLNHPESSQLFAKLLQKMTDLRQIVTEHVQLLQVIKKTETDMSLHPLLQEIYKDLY
UniProt P10415: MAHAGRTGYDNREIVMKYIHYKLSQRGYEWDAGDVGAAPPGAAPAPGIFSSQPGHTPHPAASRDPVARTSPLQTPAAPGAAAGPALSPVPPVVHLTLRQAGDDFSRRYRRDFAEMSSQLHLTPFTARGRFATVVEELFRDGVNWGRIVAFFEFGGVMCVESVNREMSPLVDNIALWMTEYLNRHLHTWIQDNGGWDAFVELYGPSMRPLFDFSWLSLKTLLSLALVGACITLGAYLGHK
UniProt Q64373: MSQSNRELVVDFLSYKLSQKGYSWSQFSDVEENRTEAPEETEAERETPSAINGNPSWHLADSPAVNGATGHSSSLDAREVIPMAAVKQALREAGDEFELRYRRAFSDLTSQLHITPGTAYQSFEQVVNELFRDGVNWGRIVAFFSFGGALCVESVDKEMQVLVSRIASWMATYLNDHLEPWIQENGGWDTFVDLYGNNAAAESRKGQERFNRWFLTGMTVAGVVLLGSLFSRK

These are yes or no findings as the source states them, for the method shown. Some entries that bind do so weakly or less than the wild type.

The target of assay [1] is ligand binding domain (LBD) of human PPARγ (amino acids Glu196-Tyr477) (human) (UniProt P37231). The assay is described as follows: fluorescence anisotropy with fluorescein-labeled peptide.
Assay [2] deals with T1, chimeric human Bcl-2 (with the internal loop 51-91 removed and residues 35-50 replaced by residues 33-48 of mouse Bcl-XL) (human; mouse) (UniProt P10415+Q64373). Nature of the assay: DSLS thermal aggregation.
Assay [3] has as its target T1, chimeric human Bcl-2 (with the internal loop 51-91 removed and residues 35-50 replaced by residues 33-48 of mouse Bcl-XL) (human; mouse). Nature of the assay: fluorescence polarization, 20 nM Bax-BH3 with 400 nM Bcl-2, titrated with CoA. (In fluorescence polarisation assays a small probe gives low polarisation when free and higher when bound to something large.)
Assay [4] has the same target. The assay is described as follows: intrinsic tryptophan fluorescence quenching of Bcl-2.

For the molecule DPASNLGLEDIIRKALMGSFD (N-terminal FITC) [FITC-…, fluorescence-labeled peptide corresponding to NCoR-RID2], in assay [1], the binding result is “binds”.

As to QDASTKKLSECLRRIGDELDSNMELQRMIAD (fluorescence-labeled (fluorescein); position of the label not stated) [fluorescence-labeled peptide … corresponding to Bax-BH3], the binding result in assay [2], in assay [3] and in assay [4] was “binds” each time.
